Assay results: paper PMC2856662
No constants are given. Whether binding was seen depends on the method and setting. Binding seen in cells or lysates may run through a third protein. Binding can be weak; no strength is given. Where a sequence is shown, tags or fusion partners need not be part of it.

Key:
Assay in all cases: pull-down; GST fusion proteins of CXCR2-CTD on glutathione beads mixed with 293-parental cell lysates (1 mg total protein) over-expressing HA-LASP-1 or its HA-tagged domains, 1 h at 4°C; anti-HA blot; only the target purified
[1] = target: GST-CXCR2-311-330 (first half of the CTD) (human)
[2] = target: GST-CXCR2 (318-355) (human)
[3] = target: GST-CXCR2-311-355 (full length WT carboxyl-terminal domain) (human)

Measured: binding

B1: HA-LASP-1 (full length, over-expressed in 293-parental cells) (protein, UniProt Q14847 1-261)
chain: MNPNCARCGKIVYPTEKVNCLDKFWHKACFHCETCKMTLNMKNYKGYEKKPYCNAHYPKQSFTMVADTPENLRLKQQSELQSQVRYKEEFEKNKGKGFSVVADTPELQRIKKTQDQISNIKYHEEFEKSRMGPSGGEGMEPERRDSQDGSSYRRPLEQQQPHHIPTSAPVYQQPQQQPVAQSYGGYKEPAAPVSIQRSAPGGGGKRYRAVYDYSAADEDEVSFQDGDTIVNVQQIDDGWMYGTVERTGDTGMLPANYVEAI
binds: all assays above
